61 compounds from PubChem BioAssay AID2685 (National Center for Advancing Translational Sciences (NCATS), 2010) can be followed below.

This is one part of the list. Further columns of the screen follow, without active or inactive calls. Compounds called inactive in the main read-out are mostly missing here. Potencies come from curve fits of mixed quality, noted in brackets.

This assay can be described thus: qHTS Assay for Lipid Storage Modulators in Drosophila S3 Cells.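 On cell number change: cells counted by Cell Tracker Red CMTPX staining in the red channel.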 The settings on record: BODIPY lipid droplet fluorescence, 18-24 h; for cell number change: measured here: cell count max response, cells fed with added oleic acid. The method, boiled down:
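Laser-scanning cytometry quantifies lipid droplet accumulation (500–530 nm total intensity; droplet/cell object ratio) in oleic acid-fed (400 uM added) Drosophila S3 cells treated with a concentration series. 20 uM Triacsin C defined 100% inhibition.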

The mark [1] stands for this setting: measured here: cell number channel AC50, cells fed with added oleic acid.
Setting [2] is: measured here: lipid fluorescence (Fed channel) AC50, cells fed with added oleic acid.

In the case of `CCc1nc2c(c(=O)c3ccccc3n2C)c(=O)n1-c1ccc(F)cc1`, the cell number change worked out at 9.44%.

`COc1ccc(S(=O)(=O)NCc2ccc(C(=O)NCc3cccnc3)cc2)cc1`: the AC50 (commonly the concentration at which the activity in the assay is half-maximal) was 6.51 µM [rising, single point] under setting [1] and 18.4 µM [rising, single point] under setting [2].

As for `COc1ccc(CCCC(=O)N/N=C/c2ccc(C)cc2)cc1`, the AC50 under setting [2] is 0.0291 µM [rising, full curve, poor fit].

Turning to `O=S(=O)(NCC(c1cccnc1)N1CCN(c2ccccc2F)CC1)c1cccs1` (stereo not drawn), the cell number change came out at 10.5%.

In the case of `Cc1ccn2nc(C(=O)OCC(=O)N(CC(C)C)C3CCS(=O)(=O)C3)nc2n1` (stereo not drawn), the cell number change was -20.2%. In addition, under setting [2], the AC50 was 0.461 µM [falling, full curve, poor fit].

Take `CCOC(=O)C1CCCN(c2c(NCCN3CCCCC3C)c(=O)c2=O)C1` (stereo not drawn): the cell number change was -1.22%. Also, the AC50 under setting [2] was 0.0651 µM [falling, full curve, poor fit].

On to `COc1cc2cc(C(c3nnnn3C3CCCC3)N3CCCCCC3)c(=O)[nH]c2cc1OC` (stereo not drawn), for which the AC50 under setting [2] is 1.46 µM [rising, partial curve].

As to `Cc1cc(=O)oc2cc(NC(=O)CCC(=O)O)ccc12`, the cell number change is 0.287%. The AC50 under setting [2] was 0.326 µM [falling, single point].

With `CC1CCN(c2nc(-c3ccncc3)nc3ccccc23)CC1`, the cell number change was -52.7%. Besides, the AC50 under setting [1] is 20.6 µM [falling, single point]. Under setting [2], the AC50 was 29.1 µM [falling, single point].

Regarding `Cc1cc(C)cc(NC(=O)CN2CCCN(S(=O)(=O)c3ccc(Br)s3)CC2)c1`, the cell number change amounted to 64.9%. Also, the AC50 under setting [1] is 7.31 µM [rising, partial curve]. The AC50 under setting [2] is 6.51 µM [rising, single point].

Turning to `N#Cc1cc(S(=O)(=O)N2CCOCC2)ccc1N1CCOCC1`, the cell number change amounted to 2.05%.

Regarding `Cc1ccc(CO/N=C/C2=C(Cl)c3ccccc3CC2)cc1`, the cell number change was determined as 17.3%. Moreover, under setting [1], the AC50 was 0.058 µM [falling, full curve, poor fit]. Moreover, the AC50 under setting [2] was 20.6 µM [rising, partial curve].

As for `CCNC(=S)Nc1cc(C(=O)N2CCCC2)ccc1N1CCCC1`, the cell number change is -26.1%. Also, the AC50 under setting [1] was 4.61 µM [falling, full curve, poor fit]. The AC50 under setting [2] was 18.4 µM [falling, single point].

In the case of `Cc1ccccc1Nc1c(N)c(=O)oc2ccccc12`, the half-maximal activity concentration (AC50) was 0.116 µM [falling, full curve, poor fit] under setting [1] and 0.116 µM [falling, full curve, poor fit] under setting [2].

As for `COCc1c(Br)c(C)nc(OCC(=O)O)c1C#N`, the cell number change was -232%. The AC50 under setting [1] was 0.13 µM [falling, full curve, poor fit]. The AC50 under setting [2] is 0.651 µM [falling, single point].

In the case of `COc1ccc(C(c2c(NC(=O)c3ccccc3)sc(C)c2C)N2CCN(CCO)CC2)cc1` (stereo not drawn), the cell number change is 62%. Further, the AC50 under setting [1] was 9.2 µM [rising, partial curve].

As to `CCN(Cc1ccccc1)S(=O)(=O)c1cc(C(=O)c2c(N)n(C)c(=O)n(C)c2=O)ccc1OC`, the cell number change was -28.7%. Moreover, the AC50 under setting [2] is 0.517 µM [falling, full curve, poor fit].

For the compound `CCCN1C(=O)/C(=C\C=C2/Sc3ccccc3N2CC)SC1=S`, the cell number change is -13.2%. Also, under setting [2], the AC50 was 0.00461 µM [falling, full curve, poor fit].

Regarding `O=C1c2ccccc2C(Nc2ccc(F)cc2F)N1CCN1CCOCC1` (stereo not drawn), the cell number change is 13.1%. Under setting [2], the AC50 is 0.092 µM [rising, full curve, poor fit].

In the case of `CCCCN1C(=O)c2ccc(C(=O)Nc3ccc(C)c(S(=O)(=O)N(C)C)c3)cc2C1=O`, the cell number change was -10.2%. Also, the AC50 under setting [2] was 29.1 µM [falling, single point].

In the case of `Cc1ccc(S(=O)(=O)CC(=O)Nc2cccc(C)n2)cc1`, the cell number change stood at 17.1%.

On to `CCCn1nnc(NC(=O)c2cccc(OCC(C)C)c2)n1`, for which the cell number change is -15.8%. Further, under setting [2], the AC50 is 25.9 µM [rising, single point].

For the compound `CCOC(=O)N1CCN(C(=O)CS(=O)(=O)Cc2nc(-c3cccc(OC)c3)oc2C)CC1`, the cell number change amounted to 1.53%.

`CCN(CC(=O)Nc1ccc(NC(C)=O)cc1)C(=O)c1oc2c(ccc3ccccc32)c1C`: the cell number change is -16.8%. Moreover, under setting [2], the concentration at half-maximal activity (AC50) is 2.59 µM [rising, full curve].

As for `Cc1cccc(CNC(=O)CCc2nnc(C3CCCCC3)o2)c1`, the cell number change was 6.37%.

In the case of `CCSc1nc2nc(C)cc(C)n2n1`, the cell number change is -1.12%. Further, the AC50 under setting [1] was 6.51 µM [rising, single point].

For the compound `c1ccc(CCn2cnc3ccccc32)cc1`, the cell number change was found to be 4.75%. The AC50 under setting [1] is 0.00461 µM [falling, full curve, poor fit].

Consider `Cc1c(OCC(=O)NCC(O)c2ccccc2)ccc2c(-c3ccccc3)cc(=O)oc12` (stereo not drawn), for which the AC50 under setting [2] was 13 µM [falling, partial curve].

In the case of `CN(Cc1ccccc1)C(=O)c1ccc(NC(=O)C2=CSCCO2)cc1`, the cell number change is -28.7%. Moreover, the AC50 under setting [2] was 29.1 µM [falling, single point].

Consider `Cc1ccc(/C=C(\C#N)c2nc3ccccc3[nH]2)s1`, for which the cell number change was -27.6%. Further, the AC50 under setting [2] is 1.03 µM [falling, full curve, poor fit].

Take `COc1ccc(Cl)cc1S(=O)(=O)N1CCC(C(=O)NCc2ccco2)CC1`: the cell number change was -15.7%. The AC50 under setting [2] was 0.231 µM [falling, full curve].

Turning to `O=C(CCc1nnc2n(Cc3ccc(F)cc3)c(=O)c3ccccc3n12)N1CCN(c2ccccn2)CC1`, the AC50 under setting [2] is 11.6 µM [falling, partial curve].

For `Cc1ccc(SCCC(=O)NCc2ccncc2)cc1`, the cell number change was found to be 22%. For the same compound, under setting [2], the AC50 is 11.6 µM [rising, partial curve].

With `CCCCn1nc(C(=O)N(CC)CC(=O)Nc2c(F)cccc2F)c2ccccc2c1=O`, the cell number change is -6.56%. The AC50 under setting [2] was 0.0651 µM [falling, full curve, poor fit].

With `COc1ccccc1NC(=S)NCCN1CCOCC1`, the cell number change was -4.26%. In addition, the AC50 under setting [2] was 20.6 µM [falling, single point].

For the compound `CCOc1ccc(CNC(=O)Cn2ccc3cc(S(=O)(=O)N4CCCC4)ccc32)cc1`, the cell number change came out at 11%.

For `Cc1cc(N2CCN(c3ccccc3F)CC2)nc2cc(O)ccc12`, the cell number change amounted to 3.56%. In addition, under setting [2], the AC50 was 0.366 µM [rising, full curve, poor fit].

Turning to `COc1ccc(C(=O)NCc2cc(C)nc3ccccc23)cc1OC`, the cell number change amounted to 15.6%. Also, under setting [2], the AC50 is 20.6 µM [rising, single point].

As to `Nc1nc(C23CC4CCC(CC(C4)C2)C3)cs1`, the cell number change is -19.7%. In addition, the AC50 under setting [2] was 32.6 µM [falling, partial curve, poor fit].

As to `O=C(CSc1nc2cc3ccccc3cc2[nH]1)Nc1ccc(F)cc1`, the cell number change was -52.8%. The AC50 under setting [1] was 29.1 µM [falling, single point]. Under setting [2], the AC50 was 32.6 µM [falling, single point].

In the case of `CCN(CC(=O)Nc1ccc(S(=O)(=O)N2CCOCC2)cc1)Cc1ccccc1`, the cell number change turned out to be 1.91%. The AC50 under setting [2] is 3.26 µM [falling, single point].

Turning to `COc1ccc(-c2nc(CS(=O)(=O)CC(=O)NCCCN3CCN(C)CC3)c(C)o2)cc1`, the cell number change was -11.1%.

Turning to `Cc1ccc(S(=O)(=O)CCNC(=O)Cc2ccccc2)cc1`, the cell number change is -38.4%. In addition, the AC50 under setting [1] was 29.1 µM [falling, single point].

With `CCN(CC(=O)NCc1ccc(F)cc1)C(=O)CN1CCN(c2ccccc2OC)CC1`, the cell number change was determined as 5.98%.

As to `CCn1c(CSc2nc3ccccc3s2)n[nH]c1=S`, the cell number change turned out to be 35.5%. Further, the AC50 under setting [1] was 1.64 µM [rising, full curve, poor fit].

Take `CSc1nc(NC(C)C)nc(N2CCOCC2)n1`: the cell number change was -10.9%. Moreover, under setting [2], the AC50 is 8.2 µM [falling, partial curve].

On to `COC(=O)C1Cc2ccccc2CN1C(=O)CCl` (stereo not drawn), for which the cell number change was -36.4%. Under setting [1], the AC50 is 29.1 µM [falling, single point].

Consider `CCOC(=O)N1CCC(N2C(=O)c3ccccc3C2Nc2ccccc2C)CC1` (stereo not drawn), for which the cell number change amounted to 42.9%. Moreover, the AC50 under setting [1] is 0.13 µM [rising, full curve]. Further, the AC50 under setting [2] is 0.366 µM [rising, full curve].

As to `O=C(Cc1ccc(Cl)cc1)Nc1ccccc1N1CCN(C(=O)c2ccccc2)CC1`, the cell number change is -16%.

With `Cc1ccc(N2CCN(C(=O)c3ccccc3)CC2)c(C)c1`, the cell number change worked out at 134%. In addition, the AC50 under setting [2] is 6.51 µM [falling, single point].

In the case of `CC1C(c2ccccc2)N(C)C(c2ccccc2)C(C)C1(O)C#Cc1ccccc1` (stereo not drawn), the cell number change is -53.6%. Further, the half-maximal activity concentration (AC50) under setting [1] was 11.6 µM [falling, partial curve]. The AC50 under setting [2] is 20.6 µM [falling, partial curve].

For the compound `COc1ccc(CCN2CCCn3c2nc2c3c(=O)n(Cc3ccccc3F)c(=O)n2C)cc1OC`, the cell number change was -16.9%. Further, under setting [2], the AC50 was 0.731 µM [rising, full curve, poor fit].

As for `CC(NC(=O)OC(C)(C)C)C(=O)Oc1ccc2ccc(=O)oc2c1` (stereo not drawn), the cell number change was -0.194%. The AC50 under setting [2] is 6.51 µM [falling, single point].

For `CC(Oc1ccccc1)C(=O)Nc1ccccc1F` (stereo not drawn), under setting [2], the AC50 was 0.58 µM [falling, partial curve, poor fit].

`C[C@@H](C(=O)OCC(=O)Nc1cc(S(=O)(=O)N2CCOCC2)ccc1Cl)N1C(=O)C2CCCCC2C1=O` (stereo partly drawn): under setting [2], the AC50 was 23.1 µM [falling, single point].

For `CCCOC(=O)C(C)n1c(-c2ccccc2)nc2ccccc2c1=O` (stereo not drawn), the cell number change was -6.83%. In addition, the AC50 under setting [2] is 0.58 µM [rising, single point].

For `Cc1ccc(C(=O)OCC(=O)NCc2ccco2)cc1S(=O)(=O)N1CCOCC1`, the cell number change worked out at 18.5%.

Regarding `CCc1ccc(-c2cc(C)no2)cc1S(=O)(=O)N1CCN(C(=O)c2ccco2)CC1`, the cell number change was -1.91%. For the same compound, the AC50 under setting [2] was 0.13 µM [falling, full curve, poor fit].

`Cc1ccc(S(=O)(=O)NCC(C)n2cncn2)cc1` (stereo not drawn): the cell number change amounted to 30%.

Take `COc1ccc(OCc2cc(C(=O)NC3Cc4ccccc4C3)no2)c(Cl)c1`: the cell number change was -26.9%. In addition, under setting [1], the AC50 is 0.0366 µM [falling, full curve, poor fit].

`Cc1onc(-c2ccccc2Cl)c1C(=O)N1CCN(c2nc3ccccc3s2)CC1`: the cell number change was 35.6%. Also, the AC50 under setting [1] was 1.64 µM [rising, partial curve, poor fit]. The AC50 under setting [2] was 0.259 µM [rising, full curve].
